Source: the supplement of paper PMC3353916
This is a noisy data set.

Tested on: Sindbis virus TE/5'2J-GFP
Experiment: percent infected (GFP+ in RFP+ ISG-expressing cells); higher = more infection (less antiviral activity)
Conditions: experiment: primary screen (single well)

MRRLWGAARKPSGAGWEKEWAEAPQEAPGAWSGRLGPGRSGRKGRAVPGWASWPAHLALAARPARHLGGAGQGPRPLHSGTAPFHSRASGERQRRLEPQLQHESRCRSSTPADAWRAEAALPVRAMGAPWGSPTAAAGGRRGWRRGRGLPWTVCVLAAAGLTCTALITYACWGQLPPLPWASPTPSRPVGVLLWWEPFGGRDSAPRPPPDCRLRFNISGCRLLTDRASYGEAQAVLFHHRDLVKGPPDWPPPWGIQAHTAEEVDLRVLDYEEAAAAAEALATSSPRPPGQRWVWMNFESPSHSPGLRSLASNLFNWTLSYRADSDVFVPYGYLYPRSHPGDPPSGLAPPLSRKQGLVAWVVSHWDERQARVRYYHQLSQHVTVDVFGRGGPGQPVPEIGLLHTVARYKFYLAFENSQHLDYITEKLWRNALLAGAVPVVLGPDRANYERFVPRGAFIHVDDFPSASSLASYLLFLDRNPAVYRRYFHWRRSYAVHITSFWDEPWCRVCQAVQRAGDRPKSIRNLASWFER [FUT4]
percent infected (BHK/HA-Zeo (control)): 89.7%
percent infected (BHK/NZAP-Zeo (ZAP)): 82.9%

MRSARSTALNRGEQRAVRYYSHMKLNMAEEEDYMSDSFINVQEDIRPGLPMLRQIREARRKEEKQQEANLKNRQKSLKEEEQERRDIGLKNALGCENKGFALLQKMGYKSGQALGKSGGGIVEPIPLNIKTGKSGIGHEASLKRKAEEKLESYRKKIHMKNQAEEKAAEQFRMRLKNKQDEMKLEGDLRRSQRACQQLDVQKNIQVPREAWYWLRLEEETEEDEEEKEQDEDEYKSEDLSVLEKLQILTSYLREEHLYCIWCGTAYEDKEDLSSNCPGPTSADHD [CCDC75]
percent infected (BHK/HA-Zeo (control)): 95.3%
percent infected (BHK/NZAP-Zeo (ZAP)): 84.2%

MRSCFCVRRSRDPPPPQPPPPPPQRGTDQSTMPEVKDLSEALPETSMDPITGVGVVASRNRAPTGYDVVAQTADGVDADLWKDGLFKSKVTRYLCFTRSFSKENSHLGNVLVDMKLIDIKDTLPVGFIPIQETVDTQEVAFRKKRLCIKFIPRDSTEAAICDIRIMGRTKQAPPQYTFIGELNSMGIWYRMGRVPRNHDSSQPTTPSQSSAASTPAPNLPRHISLTLPATFRGRNSTRTDYEYQHSNLYAISAMDGVPFMISEKFSCVPESMQPFDLLGITIKSLAEIEKEYEYSFRTEQSAAARLPPSPTRCQQIPQS [FAM125B]
percent infected (BHK/HA-Zeo (control)): 97.6%
percent infected (BHK/NZAP-Zeo (ZAP)): 92.1%

MRSRLLLSVAHLPTIRETTEEMLLGGPGQEPPPSPSLDDYVRSISRLAQPTSVLDKATAQGQPRPPHRPAQACRKGRPAVSLRDITARFSGQQPTLPMADTVDPLDWLFGESQEKQPSQRDLPRRTGPSAGLWGPHRQMDSSKPMGAPRGRLCEARMPGHSLARPPQDGQQSSDLRSWTFGQSAQAMASRHRPRPSSVLRTLYSHLPVIHEL [C10orf10]
percent infected (BHK/HA-Zeo (control)): 87.7%
percent infected (BHK/NZAP-Zeo (ZAP)): 84.4%

MRTSYLLLFTLCLLLSEMASGGNFLTGLGHRSDHYNCVSSGGQCLYSACPIFTKIQGTCYRGKAKCCK [DEFB1]
percent infected (BHK/HA-Zeo (control)): 90.1%
percent infected (BHK/NZAP-Zeo (ZAP)): 75%

MRVMAPRALLLLLSGGLALTETWACSHSMRYFDTAVSRPGRGEPRFISVGYVDDTQFVRFDSDAASPRGEPRAPWVEQEGPEYWDRETQKYKRQAQADRVSLRNLRGYYNQSEDGSHTLQRMSGCDLGPDGRLLRGYDQSAYDGKDYIALNEDLRSWTAADTAAQITQRKLEAARAAEQLRAYLEGTCVEWLRRYLENGKETLQRAEPPKTHVTHHPLSDHEATLRCWALGFYPAEITLTWQRDGEDQTQDTELVETRPAGDGTFQKWAAVVVPSGQEQRYTCHMQHEGLQEPLTLSWEPSSQPTIPIMGIVAGLAVLVVLAVLGAVVTAMMCRRKSSGGKGGSCSQAACSNSAQGSDESLITCKA [HLA-C]
percent infected (BHK/HA-Zeo (control)): 95.9%
percent infected (BHK/NZAP-Zeo (ZAP)): 89.5%

MSAALFSLDGPARGAPWPAEPAPFYEPGRAGKPGRGAEPGALGEPGAAAPAMYDDESAIDFSAYIDSMAAVPTLELCHDELFADLFNSNHKAGGAGPLELLPGGPARPLGPGPAAPRLLKREPDWGDGDAPGSLLPAQVAACAQTVVSLAAAGQPTPPTSPEPPRSSPRQTPAPGPAREKSAGKRGPDRGSPEYRQRRERNNIAVRKSRDKAKRRNQEMQQKLVELSAENEKLHQRVEQLTRDLAGLRQFFKQLPSPPFLPAAGTADCR [CEBPD]
percent infected (BHK/HA-Zeo (control)): 98%
percent infected (BHK/NZAP-Zeo (ZAP)): 89.9%

MSALNWKPFVYGGLASITAECGTFPIDLTKTRLQIQGQTNDAKFKEIRYRGMLHALVRIGREEGLKALYSGIAPAMLRQASYGTIKIGTYQSLKRLFIERPEDETLPINVICGILSGVISSTIANPTDVLKIRMQAQSNTIQGGMIGNFMNIYQQEGTRGLWKGVSLTAQRAAIVVGVELPVYDITKKHLILSGLMGDTVYTHFLSSFTCGLAGALASNPVDVVRTRMMNQRVLRDGRCSGYTGTLDCLLQTWKNEGFFALYKGFWPNWLRLGPWNIIFFVTYEQLKKLDL [SLC25A30]
percent infected (BHK/HA-Zeo (control)): 98.7%
percent infected (BHK/NZAP-Zeo (ZAP)): 98.5%

MSAPLDAALHALQEEQARLKMRLWDLQQLRKELGDSPKDKVPFSVPKIPLVFRGHTQQDPEVPKSLVSNLRIHCPLLAGSALITFDDPKVAEQVLQQKEHTINMEECRLRVQVQPLELPMVTTIQMSSQLSGRRVLVTGFPASLRLSEEELLDKLEIFFGKTRNGGGDVDVRELLPGSVMLGFARDGVAQRLCQIGQFTVPLGGQQVPLRVSPYVNGEIQKAEIRSQPVPRSVLVLNIPDILDGPELHDVLEIHFQKPTRGGGEVEALTVVPQGQQGLAVFTSESG [IFI35]
percent infected (BHK/HA-Zeo (control)): 96.8%
percent infected (BHK/NZAP-Zeo (ZAP)): 93.7%

MSDAAVDTSSEITTKDLKEKKEVVEEAENGRDAPANGNAENEENGEQEADNEVDEEEEEGGEEEEEEEEGDGEEEDGDEDEEAESATGKRAAEDDEDDDVDTKKQKTDEDD [PTMA]
percent infected (BHK/HA-Zeo (control)): 98.2%
percent infected (BHK/NZAP-Zeo (ZAP)): 95.7%

MSDGDYDYLIKFLALGDSGVGKTSVLYQYTDGKFNSKFITTVGIDFREKRVVYRASGPDGATGRGQRIHLQLWDTAGQERFRSLTTAFFRDAMGFLLLFDLTNEQSFLNVRNWISQLQMHAYCENPDIVLCGNKSDLEDQRVVKEEEAIALAEKYGIPYFETSAANGTNISQAIEMLLDLIMKRMERCVDKSWIPEGVVRSNGHASTDQLSEEKEKGACGC [RAB27A]
percent infected (BHK/HA-Zeo (control)): 98.5%
percent infected (BHK/NZAP-Zeo (ZAP)): 95.1%

MSDVTIVKEGWVQKRGEYIKNWRPRYFLLKTDGSFIGYKEKPQDVDLPYPLNNFSVAKCQLMKTERPKPNTFIIRCLQWTTVIERTFHVDTPEEREEWTEAIQAVADRLQRQEEERMNCSPTSQIDNIGEEEMDASTTHHKRKTMNDFDYLKLLGKGTFGKVILVREKASGKYYAMKILKKEVIIAKDEVAHTLTESRVLKNTRHPFLTSLKYSFQTKDRLCFVMEYVNGGELFFHLSRERVFSEDRTRFYGAEIVSALDYLHSGKIVYRDLKLENLMLDKDGHIKITDFGLCKEGITDAATMKTFCGTPEYLAPEVLEDNDYGRAVDWWGLGVVMYEMMCGRLPFYNQDHEKLFELILMEDIKFPRTLSSDAKSLLSGLLIKDPNKRLGGGPDDAKEIMRHSFFSGVNWQDVYDKKLVPPFKPQVTSETDTRYFDEEFTAQTITITPPEKYDEDGMDCMDNERRPHFPQFSYSASGRE [AKT3]
percent infected (BHK/HA-Zeo (control)): 98.9%
percent infected (BHK/NZAP-Zeo (ZAP)): 98%

MSEIRKDTLKAILLELECHFTWNLLKEDIDLFEVEDTIGQQLEFLTTKSRLALYNLLAYVKHLKGQNKDALECLEQAEEIIQQEHSDKEEVRSLVTWGNYAWVYYHMDQLEEAQKYTGKIGNVCKKLSSPSNYKLECPETDCEKGWALLKFGGKYYQKAKAAFEKALEVEPDNPEFNIGYAITVYRLDDSDREGSVKSFSLGPLRKAVTLNPDNSYIKVFLALKLQDVHAEAEGEKYIEEILDQISSQPYVLRYAAKFYRRKNSWNKALELLKKALEVTPTSSFLHHQMGLCYRAQMIQIKKATHNRPKGKDKLKVDELISSAIFHFKAAMERDSMFAFAYTDLANMYAEGGQYSNAEDIFRKALRLENITDDHKHQIHYHYGRFQEFHRKSENTAIHHYLEALKVKDRSPLRTKLTSALKKLSTKRLCHNALDVQSLSALGFVYKLEGEKRQAAEYYEKAQKIDPENAEFLTALCELRLSI [IFIT5]
percent infected (BHK/HA-Zeo (control)): 97.5%
percent infected (BHK/NZAP-Zeo (ZAP)): 74.5%

MSETPAQCSIKQERISYTPPESPVPSYASSTPLHVPVPRALRMEEDSIRLPAHLRLQPIYWSRDDVAQWLKWAENEFSLRPIDSNTFEMNGKALLLLTKEDFRYRSPHSGDVLYELLQHILKQRKPRILFSPFFHPGNSIHTQPEVILHQNHEEDNCVQRTPRPSVDNVHHNPPTIELLHRSRSPITTNHRPSPDPEQRPLRSPLDNMIRRLSPAERAQGPRPHQENNHQESYPLSVSPMENNHCPASSESHPKPSSPRQESTRVIQLMPSPIMHPLILNPRHSVDFKQSRLSEDGLHREGKPINLSHREDLAYMNHIMVSVSPPEEHAMPIGRIADCRLLWDYVYQLLSDSRYENFIRWEDKESKIFRIVDPNGLARLWGNHKNRTNMTYEKMSRALRHYYKLNIIRKEPGQRLLFRFMKTPDEIMSGRTDRLEHLESQELDEQIYQEDEC [ETV6]
percent infected (BHK/HA-Zeo (control)): 97.6%

MSEVTKNSLEKILPQLKCHFTWNLFKEDSVSRDLEDRVCNQIEFLNTEFKATMYNLLAYIKHLDGNNEAALECLRQAEELIQQEHADQAEIRSLVTWGNYAWVYYHLGRLSDAQIYVDKVKQTCKKFSNPYSIEYSELDCEEGWTQLKCGRNERAKVCFEKALEEKPNNPEFSSGLAIAMYHLDNHPEKQFSTDVLKQAIELSPDNQYVKVLLGLKLQKMNKEAEGEQFVEEALEKSPCQTDVLRSAAKFYRRKGDLDKAIELFQRVLESTPNNGYLYHQIGCCYKAKVRQMQNTGESEASGNKEMIEALKQYAMDYSNKALEKGLNPLNAYSDLAEFLETECYQTPFNKEVPDAEKQQSHQRYCNLQKYNGKSEDTAVQHGLEGLSISKKSTDKEEIKDQPQNVSENLLPQNAPNYWYLQGLIHKQNGDLLQAAKCYEKELGRLLRDAPSGIGSIFLSASELEDGSEEMGQGAVSSSPRELLSNSEQLN [IFIT3]
percent infected (BHK/HA-Zeo (control)): 95.7%
percent infected (BHK/NZAP-Zeo (ZAP)): 89%

MSFFQLLMKRKELIPLVVFMTVAAGGASSFAVYSLWKTDVILDRKKNPEPWETVDPTVPQKLITINQQWKPIEELQNVQRVTK [C15orf48]
percent infected (BHK/HA-Zeo (control)): 95.1%
percent infected (BHK/NZAP-Zeo (ZAP)): 85.5%

MSIMDHSPTTGVVTVIVILIAIAALGALILGCWCYLRLQRISQSEDEESIVGDGETKEPFLLVQYSAKGPCVERKAKLMTPNGPEVHG [SNN]
percent infected (BHK/HA-Zeo (control)): 87.1%
percent infected (BHK/NZAP-Zeo (ZAP)): 70.5%

MSKAFGLLRQICQSILAESSQSPADLEEKKEEDSNMKREQPRERPRAWDYPHGLVGLHNIGQTCCLNSLIQVFVMNVDFTRILKRITVPRGADEQRRSVPFQMLLLLEKMQDSRQKAVRPLELAYCLQKCNVPLFVQHDAAQLYLKLWNLIKDQITDVHLVERLQALYTIRVKDSLICVDCAMESSRNSSMLTLPLSLFDVDSKPLKTLEDALHCFFQPRELSSKSKCFCENCGKKTRGKQVLKLTHLPQTLTIHLMRFSIRNSQTRKICHSLYFPQSLDFSQILPMKRESCDAEEQSGGQYELFAVIAHVGMADSGHYCVYIRNAVDGKWFCFNDSNICLVSWEDIQCTYGNPNYHWQETAYLLVYMKMEC [USP18]
percent infected (BHK/HA-Zeo (control)): 98%
percent infected (BHK/NZAP-Zeo (ZAP)): 93.7%
